Measured values published in article PMC10612246.
Results are given in words; binding and its absence hold for the method and conditions named. Binding seen in cells or lysates may run through a third protein. Some entries that bind do so weakly or less than the wild type.

Sequences of proteins named here, by UniProt entry; tags and fusion partners are left off. Residues count along the entry.
UniProt P31750: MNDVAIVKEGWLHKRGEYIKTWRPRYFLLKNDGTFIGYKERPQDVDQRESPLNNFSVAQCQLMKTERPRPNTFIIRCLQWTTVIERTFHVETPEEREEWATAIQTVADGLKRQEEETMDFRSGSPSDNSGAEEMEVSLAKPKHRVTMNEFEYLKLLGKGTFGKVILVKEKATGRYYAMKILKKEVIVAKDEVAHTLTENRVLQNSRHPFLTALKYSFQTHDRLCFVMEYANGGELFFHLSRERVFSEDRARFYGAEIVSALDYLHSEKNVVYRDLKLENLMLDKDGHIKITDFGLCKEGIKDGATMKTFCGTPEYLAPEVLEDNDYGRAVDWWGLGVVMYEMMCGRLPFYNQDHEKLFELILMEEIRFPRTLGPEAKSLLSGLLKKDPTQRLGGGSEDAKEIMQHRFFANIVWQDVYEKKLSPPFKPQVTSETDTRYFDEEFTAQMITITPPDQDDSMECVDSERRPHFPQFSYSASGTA
UniProt Q9CR84, residues 62-136: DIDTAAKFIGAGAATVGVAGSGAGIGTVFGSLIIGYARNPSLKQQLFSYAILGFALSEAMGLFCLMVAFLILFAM
UniProt P56480, residues 47-529: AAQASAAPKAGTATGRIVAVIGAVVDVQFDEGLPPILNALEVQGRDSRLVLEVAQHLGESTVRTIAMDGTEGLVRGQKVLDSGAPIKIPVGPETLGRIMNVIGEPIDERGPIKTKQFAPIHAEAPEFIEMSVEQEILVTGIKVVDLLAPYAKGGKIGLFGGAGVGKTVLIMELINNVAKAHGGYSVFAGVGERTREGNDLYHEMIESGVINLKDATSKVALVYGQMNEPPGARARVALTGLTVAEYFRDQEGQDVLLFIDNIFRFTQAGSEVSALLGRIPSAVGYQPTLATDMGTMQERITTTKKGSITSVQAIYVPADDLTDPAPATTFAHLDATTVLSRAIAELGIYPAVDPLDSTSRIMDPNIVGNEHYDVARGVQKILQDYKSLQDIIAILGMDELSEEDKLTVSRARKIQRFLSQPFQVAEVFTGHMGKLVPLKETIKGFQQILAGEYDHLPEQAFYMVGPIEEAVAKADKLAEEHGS
UniProt Q03265, residues 44-553: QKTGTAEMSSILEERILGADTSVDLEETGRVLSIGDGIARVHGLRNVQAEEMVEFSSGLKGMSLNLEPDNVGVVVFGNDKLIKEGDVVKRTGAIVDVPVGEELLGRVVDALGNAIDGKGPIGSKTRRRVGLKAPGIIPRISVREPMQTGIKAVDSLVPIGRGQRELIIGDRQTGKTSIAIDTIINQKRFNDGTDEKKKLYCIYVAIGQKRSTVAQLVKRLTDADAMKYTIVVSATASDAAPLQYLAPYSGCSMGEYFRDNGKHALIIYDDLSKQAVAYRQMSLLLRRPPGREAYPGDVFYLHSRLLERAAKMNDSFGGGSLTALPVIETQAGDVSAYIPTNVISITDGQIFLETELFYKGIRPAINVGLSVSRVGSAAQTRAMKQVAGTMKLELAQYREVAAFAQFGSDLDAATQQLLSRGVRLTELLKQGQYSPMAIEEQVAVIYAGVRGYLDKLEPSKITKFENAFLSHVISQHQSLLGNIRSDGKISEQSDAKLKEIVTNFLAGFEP

Target: AKT1 (mouse (endogenous in mouse heart)) (UniProt P31750)
Test: co-IP; soluble mitochondrial proteins from isolated cardiac mitochondria of control and TAM-CAMDAKT mice, co-immunoprecipitated with AKT1, western blot of ATP synthase subunits (n = 3 each group)

Molecule | binding
ATP synthase subunit c (from UniProt Q9CR84 62-136) | binds
ATP synthase subunit beta (from UniProt P56480 47-529) | binds

The remaining lines, values ahead:

binding | Molecule
binds | ATP synthase subunit alpha (from UniProt Q03265 44-553)
binds | ATP synthase subunit b1 (protein, UniProt Q9CQQ7 43-256) PLPPLPEYGGKVRLGLIPEEFFQFLYPKTGVTGPYVLGTGLSLYFLSKEIYVITPETFSTISVVGLIVYVIKKYGASFGEFIDKLNEEKIAQLEEVKQSSMKQIQDAIDMEKAQQALVQKRHYLFDVQRNNIALALEVTYRERLHKAYKEVKNRLDYHISVQNMMRRKEEEHMIDWVEKHVVKSISVQQEKETIAKCIEDLKLLAKKAQAQPIM
